Assay results: PubChem BioAssay AID493014 (National Center for Advancing Translational Sciences (NCATS), 2011)
The campaign covered roughly 340,000 compounds. About 170 (0.05%) were called active. This list was built around the results that the source calls inconclusive (neither active nor inactive); the mix of calls is not that of the screen. Calls come from the whole dose curve; as a rule, active = well fitted inhibition curve with a large enough effect in the signal ratio, with a control signal flat (not every such curve was filed as active); inconclusive = small, poorly fitted or top-dose-only effect, or effect the other way, or a change in a side signal; inactive = flat fitted curve, though single readings scatter; the % refers to the signal ratio. Potencies of inconclusive entries are doubtful fits and often do not repeat.
Potency is the fitted concentration of half-maximal effect.

Test: qHTS Assay to Find Inhibitors of Chronic Active B-Cell Receptor Signaling;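 for activity change, negative = inhibition: plate controls were basal doxycycline-induced cells for no effect and cells given 10 µM MG132 for full effect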
Details: ABC-DLBCL IkBa-CBG/CBR reporter, luminescence ratio (green luciferase fused to IkBa over red control in TMD8 lymphoma cells), 4 h; activity change, negative = inhibition: at 46.1 µM (top of the series) unless noted
In short: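 Compounds up to 46 uM were incubated four hours with TMD8 cells whose green CBG68 luciferase is fused to IkappaBalpha; red CBR luminescence normalised the signal, and concentration-effect curves were fitted to fusion, red and ratio data.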
In the case of `CN1CCN(c2ccccc2NC(=O)c2ccc(-c3cccc(Cl)c3)o2)CC1`, the activity change, negative = inhibition is reported as inconclusive: -7.27%.
With `Cc1ccc(-c2cc(NC(=O)CCl)n(-c3ccccc3)n2)cc1` the activity change, negative = inhibition was inconclusive: -10.2%.
For `O=C(CSc1nc(Nc2ccc(F)cc2)c2ccccc2n1)c1ccc(F)cc1`, the activity change, negative = inhibition was inconclusive: -18.6%.
With `O=[N+]([O-])c1cccc(-c2nn(-c3ccccc3)cc2CO)c1` the activity change, negative = inhibition was inconclusive: 2.45%.
For `CC(=O)Nc1ccc(NC(=O)COC(=O)[C@@H](NC(=O)c2ccc(F)cc2)C(C)C)cc1`, the activity change, negative = inhibition was inconclusive: 4.12%.
For `CCC(=O)Nc1ccc2c(c1)Cc1cc(NC(=O)CC)ccc1-2`, the activity change, negative = inhibition was inconclusive: 0.869%.
With `COc1cccc(C(=O)COc2ccc(NC(=O)c3cccs3)cc2)c1` the activity change, negative = inhibition was inconclusive: -7.06%.
For `COc1cccc(NC(=O)CSc2nnc(-c3cccnc3)o2)c1`, the Potency was inconclusive: 8.2 µM [falling, partial curve, poor fit].
For `CN(C)C(=S)NC(C)(C)C`, the “activity change, negative = inhibition” value was inactive: 5.31%.
In the case of `O=C(Nc1ccc(N2CCN(C(=O)c3ccccc3)CC2)cc1)c1ccc2c(c1)OCO2`, the activity change, negative = inhibition is reported as inconclusive: -12.5%.
For `COC(=O)c1ccccc1NC(=O)CSc1nc2ccccc2c(=O)[nH]1`, the Potency was inconclusive: 18.4 µM [falling, partial curve, poor fit].
With `O=C(COc1ccc(-c2nnco2)cc1)Nc1ccc(F)c(Cl)c1` the activity change, negative = inhibition was inconclusive: -1.69%.
In the case of `O=C(NNS(=O)(=O)c1ccccc1)c1csc(-c2cccnc2)n1`, the activity change, negative = inhibition is reported as inconclusive: -6%.
In the case of `COc1ccc(-n2ncc3c(NCc4ccco4)ncnc32)cc1`, the activity change, negative = inhibition is reported as inconclusive: 8.39%.
With `Cc1ccccc1Cc1c(C)nc2c(C(=O)NCc3ccco3)cnn2c1C` the activity change, negative = inhibition was inconclusive: -6.9%.
In the case of `O=C(CSc1nc2ccccc2c(=O)n1Cc1ccco1)N1CCCC1`, the activity change, negative = inhibition is reported as inconclusive: -0.955%.
For `Cc1ccc(C)c(NC(=O)CSc2nccn2Cc2ccco2)c1`, the activity change, negative = inhibition was inconclusive: 2.51%.
In the case of `C/C(CC(=O)NCc1ccc(Cl)cc1)=N\NC(=O)c1ccccc1F`, the Potency is reported as inconclusive: 35.5 µM [rising, single point].
In the case of `Cn1cccc1/C=N/NC(=O)c1ccncc1`, the “activity change, negative = inhibition” value is reported as inactive: -0.25%.
In the case of `Cc1cccc(-n2c(C)nc3cc(C(=O)NCCC4=CCCCC4)ccc32)c1`, the “activity change, negative = inhibition” value is reported as inactive: 5.83%.
For `O=C(O)CN1C(=O)/C(=C\c2cc(Br)ccc2OCc2ccc([N+](=O)[O-])cc2)SC1=S`, the activity change, negative = inhibition was inconclusive: 11.3%.
For `Cc1ccc2nc(-c3ccccn3)c(NC3CCCC3)n2c1`, the “activity change, negative = inhibition” value was inactive: -8.22%.
With `COCCNC(=O)c1cc2c(-c3ccccc3F)nn(C)c2s1` the activity change, negative = inhibition was inconclusive: 9.66%.
In the case of `Cc1sc(Cc2nc(O)cs2)nc1-c1ccccc1`, the “activity change, negative = inhibition” value is reported as inactive: -2.5%.
With `COc1ccc(NC(=O)c2cccc(NC(=O)c3ccccc3)c2)c(OC)c1` the activity change, negative = inhibition was inconclusive: -12.5%.
With `CCOc1ccc(NC(=O)CSc2nc3nc4c(cc3c(=O)n2CC)COC(C)(C)C4)cc1` the activity change, negative = inhibition was inconclusive: -4.06%.
For `CCS(=O)(=O)NCC(c1cccnc1)N1CCN(c2ccc(F)cc2)CC1` (centres undefined), the “activity change, negative = inhibition” value was inactive: 8.8%.
For `Cc1ccc(NC(=O)CN2CCN(S(=O)(=O)c3cccs3)CC2)cc1S(=O)(=O)N(C)C`, the “activity change, negative = inhibition” value was inactive: 5.42%.
With `CCn1c(COc2cccc3cccnc23)nnc1SCC(=O)O` the activity change, negative = inhibition was inconclusive: -1.73%.
In the case of `COc1cc(NC(=O)c2ccc3c(=O)n(Cc4ccco4)c(=S)[nH]c3c2)cc(OC)c1OC`, the activity change, negative = inhibition is reported as inconclusive: 6.39%.
With `Cc1noc(C)c1CSCC(=O)NCCN1C(=O)S/C(=C\c2ccccc2F)C1=O` the Potency was inconclusive: 29.1 µM [falling, partial curve, poor fit].
With `O=C(CCN1C(=O)C2C3C=CC(C3)C2C1=O)NCCc1ccccc1Cl` (centres undefined) the activity change, negative = inhibition was inconclusive: 3.98%.
With `COc1ccc(C(=O)Nc2ccc3c(c2)CCCN3C(=O)c2cccs2)c(OC)c1` the activity change, negative = inhibition was inconclusive: -0.323%.
In the case of `Cc1cc(OCC(=O)Nc2cccc(S(=O)(=O)N3CCCC3)c2)ccc1Cl`, the Potency is reported as inconclusive: 2.91 µM [falling, full curve].
For `O=c1[nH]c(Cc2ccccc2)nc2scc(-c3ccccc3)c12`, the “activity change, negative = inhibition” value was inactive: 16.8%.
With `O=C(O)c1ccc(Nc2nc(-c3cccnc3)cs2)cc1` the activity change, negative = inhibition was inconclusive: 211%.
For `COc1ccc(NS(=O)(=O)c2csc(C(N)=O)c2)cc1OC`, the activity change, negative = inhibition was inconclusive: 5.46%.
With `Cc1ccccc1OCCn1cnc2cc([N+](=O)[O-])ccc2c1=O` the “activity change, negative = inhibition” value was inactive: 8.59%.
For `COc1ccc(Cl)cc1NC(=O)CN(C)C(=O)CCSc1ccc(C)cc1`, the “activity change, negative = inhibition” value was inactive: -1.21%.
With `Cc1ccc(NC(=S)NCCc2ccc(F)cc2)c(C)c1` the “activity change, negative = inhibition” value was inactive: -1.5%.
In the case of `Cc1ccc(S(=O)(=O)CCc2nnc(NC(=O)C3CCCO3)s2)cc1` (centres undefined), the activity change, negative = inhibition is reported as inconclusive: -0.611%.
With `O=C(Nc1ccccn1)NC1CCCCC1` the Potency was inconclusive: 23.1 µM [falling, single point].
For `COC(=O)c1cc(C(=O)OCC(=O)c2ccc[nH]2)cc([N+](=O)[O-])c1`, the “activity change, negative = inhibition” value was inactive: -2.89%.
For `CCOC(=O)CSc1nnc(NCC(=O)OC)c(=O)[nH]1`, the Potency was inconclusive: 29.1 µM [falling, partial curve, poor fit].
For `CCn1c2ccc(OC)cc2c2nc3ccccc3nc21`, the activity change, negative = inhibition was inconclusive: 7.38%.
In the case of `COC(CNC(=O)c1coc2nc3ccccc3nc12)OC`, the Potency is reported as inconclusive: 15.8 µM [falling, single point].
For `O=C(COC(=O)Cc1c[nH]c2ccccc12)Nc1ccccc1`, the Potency was inconclusive: 14.6 µM [falling, partial curve].
In the case of `Cc1noc(C)c1COc1cccc(C(=O)Nc2ccc(C#N)cc2)c1`, the Potency is reported as inconclusive: 5.17 µM [falling, partial curve].
In the case of `COc1cc2c(cc1OC)C(CCc1ccccc1)=NCC2`, the activity change, negative = inhibition is reported as inconclusive: -0.577%.
For `O=[N+]([O-])c1ccc(-c2cc(-c3ccc(Cl)cc3)n[nH]2)cc1`, the activity change, negative = inhibition was inconclusive: 3.09%.
For `COc1ccccc1Nc1c([N+](=O)[O-])cc(C)cc1[N+](=O)[O-]`, the Potency was inconclusive: 11.2 µM [falling, partial curve].
In the case of `COc1cc(C(=O)Nc2nc3ccccc3[nH]2)cc(OC)c1OC`, the activity change, negative = inhibition is reported as inconclusive: -1.47%.
For `Cc1cc(Br)cc(Br)c1OCC(=O)NNC(=O)CCC(=O)NCc1ccccc1`, the activity change, negative = inhibition was inconclusive: 8.57%.
For `O=C(CSc1ccccc1)NCc1cccnc1`, the activity change, negative = inhibition was inconclusive: 8.4%.
